Results as given in PubChem BioAssay AID2417 (National Center for Advancing Translational Sciences (NCATS), 2010).
Among all 140,000 compounds or so, about 4,300 (3.1%) were called active. The shares of active, inactive and inconclusive entries below differ from those in the screen.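 How the source made its calls: active means readout at or below -70, meaning at least 70% loss of cells showing the perinucleolar compartment, a nuclear body marking cancer cells; inconclusive means readout between -30 and a set limit; inactive means the rest.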

Assay: High Content Assay for Compounds that inhibit the Assembly of the Perinucleolar Compartment;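 further: plate controls were DMSO wells for no effect and camptothecin positive control wells for full effect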
Settings: PC3M PTB-GFP, PNC prevalence imaging, 16 h; at 10 µM; stronger effect = lower value
In short: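 Read-out is percentage of cells bearing a perinucleolar compartment, from automated 20x imaging of fixed, Hoechst-stained PC3M PTB-GFP cells. Cells were seeded 4 h, then exposed 16 h to compound (23 nl of library stock) in duplicate plates.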
With `Cc1cc(NC(=O)c2cc(-c3ccccc3)on2)no1` the activity change (PNC), negative = inhibition was inactive: 9.92%.
With `Nc1ccc2oc3ccccc3c2c1` the activity change (PNC), negative = inhibition was inconclusive: -35.4%.
In the case of `O=C(NC1CC1)c1cc(=O)c2ccccc2o1`, the activity change (PNC), negative = inhibition is reported as inconclusive: -33.7%.
For `CC(=O)c1ccc(-n2c(SCC(=O)c3c[nH]c4ccccc34)nc3ccccc3c2=O)cc1`, the activity change (PNC), negative = inhibition was inconclusive: -77.1%.
For `CCC(C)n1c(SCc2ccc([N+](=O)[O-])cc2)nc2ccsc2c1=O` (centres undefined), the activity change (PNC), negative = inhibition was active: -119%.
In the case of `CCOC(=O)c1nn(-c2ccc(OCC)cc2)c2nc(-c3ccco3)c(C#N)c(=O)n12`, the activity change (PNC), negative = inhibition is reported as inactive: 58.6%.
In the case of `CCCOC(=O)C1[C@H]2C(=O)N(CCCOC)C[C@]23C=C[C@H]1O3` (some centres undefined), the activity change (PNC), negative = inhibition is reported as inconclusive: -60.1%.
In the case of `Cc1ccc(CCC(=O)Nc2ccc(S(N)(=O)=O)cc2)o1`, the activity change (PNC), negative = inhibition is reported as inactive: 11.5%.
For `Cc1ccc(NC(=O)NC(=O)CN2C(=O)NC3(CCc4ccccc43)C2=O)c(C)c1` (centres undefined), the activity change (PNC), negative = inhibition was inconclusive: -39.5%.
In the case of `COc1ccc(-c2nc3ccccc3c(C(=O)Nc3ccc(S(=O)(=O)Nc4cc(C)on4)cc3)c2C)cc1`, the activity change (PNC), negative = inhibition is reported as inactive: 20.2%.
With `O=C(Nc1cccc(S(=O)(=O)N2CCCCCC2)c1)c1ccc2c(c1)OCO2` the activity change (PNC), negative = inhibition was inconclusive: -46.3%.
In the case of `Cc1ccc(-c2cc(C(=O)NCCCn3ccnc3)c3cc(Br)ccc3n2)o1`, the activity change (PNC), negative = inhibition is reported as inconclusive: -62.7%.
With `Cc1ccc(/C=C/C(=O)NC2=NCCS2)cc1` the activity change (PNC), negative = inhibition was inconclusive: -31.1%.
With `Cc1cccc2sc(NC(=O)c3ccc(NS(=O)(=O)c4cccs4)cc3)nc12` the activity change (PNC), negative = inhibition was active: -83.7%.
For `CC(c1ccccc1)n1c(NCCCn2ccnc2)nc2c1c(=O)[nH]c(=O)n2C` (centres undefined), the activity change (PNC), negative = inhibition was inconclusive: -48.4%.
In the case of `CC(=O)C1=C(O)CC(c2ccccc2)CC1=NCCc1c(C)[nH]c2ccccc12` (centres undefined), the activity change (PNC), negative = inhibition is reported as inactive: 26.1%.
For `CCOC(=O)c1sc2ncn(/N=C/N(C)C)c(=O)c2c1C`, the activity change (PNC), negative = inhibition was active: -86.4%.
For `COC(=O)CN1C(=S)N(c2ccc(Cl)cc2)C(=O)C1CC(=O)Nc1ccc(F)cc1` (centres undefined), the activity change (PNC), negative = inhibition was inconclusive: -35.3%.
For `O=C(NCc1ccc2c(c1)OCO2)C12CC3CC(CC(C3)C1)C2`, the activity change (PNC), negative = inhibition was inconclusive: -30.9%.
For `CCOC(=O)C(NC(=O)c1ccccc1)(N1CCOCC1)C(F)(F)F` (centres undefined), the activity change (PNC), negative = inhibition was inconclusive: -57.1%.
In the case of `O=S(CC1CC1(Cl)Cl)CC1CC1(Cl)Cl` (centres undefined), the activity change (PNC), negative = inhibition is reported as inconclusive: -58.4%.
With `CCOC(=O)C1CSc2[nH]c(=O)sc2C1c1ccccc1` (centres undefined) the activity change (PNC), negative = inhibition was inactive: 4.96%.
With `CC1CN(C(=O)c2ccc(COCC(F)(F)F)o2)CC(C)O1` (centres undefined) the activity change (PNC), negative = inhibition was inconclusive: -51.8%.
With `Cc1cccc(N/N=C2/COC(C)(C)CC2=O)c1` the activity change (PNC), negative = inhibition was inconclusive: -49%.
With `Cc1nc(-n2cc(F)c(=O)[nH]c2=O)c2nc(C)oc2n1` the activity change (PNC), negative = inhibition was inconclusive: -39%.
For `C/C=N/NC(=O)c1cc(Br)ccc1O`, the activity change (PNC), negative = inhibition was inconclusive: -55.4%.
With `COc1cc(OC)cc(C(=O)N(Cc2cc3cc(C)ccc3[nH]c2=O)C(C)C)c1` the activity change (PNC), negative = inhibition was inconclusive: -44.2%.
For `CS(=O)(=O)NCc1ccc(C(=O)NCCOc2ccccc2)cc1`, the activity change (PNC), negative = inhibition was inconclusive: -55.5%.
With `CCOC(=O)/C(C#N)=C(/C)c1ccc(OC)cc1` the activity change (PNC), negative = inhibition was inconclusive: -76.6%.
For `C/C=C/c1ccc(OCCCn2cncn2)c(OC)c1`, the activity change (PNC), negative = inhibition was inactive: -5.75%.
With `Nc1nc2nonc2nc1N1CCCCC1` the activity change (PNC), negative = inhibition was inconclusive: -66.8%.
For `Cc1nn(-c2ccccc2)c(C)c1/C=N/NC(=O)c1cc(-c2ccc(Br)s2)[nH]n1`, the activity change (PNC), negative = inhibition was inactive: -26.7%.
For `O=C(c1ccco1)N1CCN(CC(=O)N2CCCc3c2c(=O)oc2ccc(O)cc32)CC1`, the activity change (PNC), negative = inhibition was inconclusive: -52.5%.
With `O=C(CSc1nc2cc([N+](=O)[O-])ccc2n1-c1ccccc1)NCc1ccc2c(c1)OCO2` the activity change (PNC), negative = inhibition was inconclusive: -36.6%.
With `CCOC(=O)c1cccc(NC(=O)C2CCN(S(=O)(=O)c3cccs3)CC2)c1` the activity change (PNC), negative = inhibition was inconclusive: -35.9%.
For `CC(C)=CC(=O)NCCc1ccccc1`, the activity change (PNC), negative = inhibition was inactive: -5.13%.
For `O=C(CSc1nc(-c2ccco2)cc(C(F)(F)F)n1)Nc1ccc2c(c1)CCC2`, the activity change (PNC), negative = inhibition was inactive: 3.57%.
In the case of `Cc1cnc(C(=O)Nc2ccc(N3CCOCC3)cc2)cn1`, the activity change (PNC), negative = inhibition is reported as active: -100%.
With `O=C(NCc1ccco1)C(=O)NCC1OCCCN1S(=O)(=O)c1ccccc1` (centres undefined) the activity change (PNC), negative = inhibition was inactive: -3.6%.
For `Cc1cc(C)n(-c2ccc(C(=O)OCC(=O)Nc3ccc([N+](=O)[O-])cc3)cc2)n1`, the activity change (PNC), negative = inhibition was inconclusive: -38.4%.
For `CCN(c1cccc(C(F)(F)F)c1)S(=O)(=O)c1ccc2c(c1)CCN2C(C)=O`, the activity change (PNC), negative = inhibition was active: -98.5%.
For `COC(=O)Cc1ccc(NC(=O)c2ccc(C(C)(C)C)cc2)cc1`, the activity change (PNC), negative = inhibition was inconclusive: -76.7%.
With `CC1=C(C(=O)OCCOC(C)C)C(c2cccnc2)C2=C(CCCC2=O)N1` (centres undefined) the activity change (PNC), negative = inhibition was inconclusive: -42.9%.
For `CCC(NC(=O)NCc1ccccc1)(C(F)(F)F)C(F)(F)F`, the activity change (PNC), negative = inhibition was inactive: 32.1%.
